# Reference: PubChem BioAssay AID652259 (Drosophila RNAi Screening Center, 2013)
# Assay: 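Knock-downs that push a Wingless-driven reporter up or down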 (primary screen)
# Cell system: Drosophila clone 8 imaginal disc epithelial cells
# Reagent: long dsRNA against Drosophila genes
# Treatment: pathway stimulated by co-transfected Wingless expression plasmid
# Measured: 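Dual luciferase reads per well after Wingless plasmid stimulation: reporter firefly light and Renilla control light; activity is firefly divided by Renilla, a ratio not deposited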
# Scale: firefly reporter light: higher = more Wg reporter light, before normalisation; Renilla control light: higher = more transfected or surviving cells
# Rule for the call: 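Strong candidates differ from their plate mean by at least two out of four per-plate statistical tests; weak candidates meet just one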
# Calls: active = candidate regulator (raises or lowers reporter); inactive = not a candidate
# In all, the deposit lists about 22,000 reagents; below is an unselected part of those that have a named target and a result. Over the whole deposit, 233 (1.1%) got an active call. 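Light values are raw, unnormalised plate reads; the ratio scores behind the reporter calls were not deposited.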 A number with no mark means an inactive call. A plus sign joins genes that one reagent is predicted to hit. Not stated in the record: the amount of reagent, the time to read-out, the dose of the treatment.
target,PubChem SID,"reporter change call, replicate 1","firefly reporter light, replicate 1","firefly reporter light, replicate 2","Renilla control light, replicate 1","Renilla control light, replicate 2"
Abcd1 (ATP binding cassette subfamily D member 1),SID104196949,,1867,4771,890,2247
CalpA (Calpain-A),SID104187144,,4621,,2009,
CG12655,SID104200470,,18076,,10832,
Mgat3,SID104181097,,24546,,9865,
temp (tempura),SID104198063,,3117,7617,1402,2411
CG9518,SID104199986,,15117,,6909,
Cpes (Ceramide phosphoethanolamine synthase),SID104184267,,10011,,2604,
CG34200,SID104184596,,24368,,12258,
CG12935 + Nop10,SID104186817,,3024,9560,860,3632
msl-3 (male-specific lethal 3),SID104191163,,2208,9905,1428,2883
CG4872,SID104199713,,2137,8179,664,2120
St3 (Sulfotransferase 3),SID104183890,,4149,10745,612,2211
St3 (Sulfotransferase 3),SID104184297,,13482,,3344,
CG14971,SID104188222,,5048,,1722,
CG12853,SID104185985,,10498,7.96e5,4235,4.15e5
CSN7 (COP9 signalosome subunit 7),SID104186599,,11261,,3388,
CSN7 (COP9 signalosome subunit 7),SID104186600,,3883,7008,749,2106
CG18547,SID104195137,,19488,,4592,
fmt (fiery mountain),SID104189509,,5162,,1714,
Hsp70Aa + Hsp70Bb + Hsp70Ba + 3 more,SID104195172,,24560,,6713,
Ir67b (Ionotropic receptor 67b),SID104189668,,7750,,2853,
CG3108,SID104198072,,4725,7979,1287,2667
CG8562,SID104190787,,1233,7001,875,2945
CG31882,SID104180876,,22688,,10571,
CG13250,SID104191490,,15237,,5296,
Ak1 (Adenylate kinase 1),SID104190040,,7680,,2272,
CG4270,SID104180440,,2233,6457,1156,2449
CG8138,SID104196178,,12640,,2048,
CG6738,SID104195896,,18741,,14627,
CG8042,SID104189468,,3140,,1312,
CG1486,SID104200300,,3220,7457,1378,3284
Cyp4ac1 (Cytochrome P450 4ac1),SID104183094,,19232,7.46e5,8112,2.75e5
RpS21 (Ribosomal protein S21),SID104180625,,3748,,1641,
Sugb (Sugar baby),SID104190607,,4295,,1588,
CG14492,SID104186255,,6656,,1994,
hrg (hiiragi),SID104187294,Wg reporter activity lowered,3105,,1491,
hpRNA:CR32207 (hairpin RNA:CR32207),SID104189408,,3365,,1579,

Continued, starting with the last 10 of the part before.
target,PubChem SID,"reporter change call, replicate 1","firefly reporter light, replicate 1","firefly reporter light, replicate 2","Renilla control light, replicate 1","Renilla control light, replicate 2"
CG8138,SID104196178,,12640,,2048,
CG6738,SID104195896,,18741,,14627,
CG8042,SID104189468,,3140,,1312,
CG1486,SID104200300,,3220,7457,1378,3284
Cyp4ac1 (Cytochrome P450 4ac1),SID104183094,,19232,7.46e5,8112,2.75e5
RpS21 (Ribosomal protein S21),SID104180625,,3748,,1641,
Sugb (Sugar baby),SID104190607,,4295,,1588,
CG14492,SID104186255,,6656,,1994,
hrg (hiiragi),SID104187294,Wg reporter activity lowered,3105,,1491,
hpRNA:CR32207 (hairpin RNA:CR32207),SID104189408,,3365,,1579,
CG14411,SID104199389,,22107,,7121,
dgt1 (dim gamma-tubulin 1),SID104195093,,3348,5994,539,929
CG14015,SID104182138,,3035,2919,742,660
Osi13 (Osiris 13),SID104192073,,9318,,1619,
Eo (Ecdysone oxidase),SID104199979,,21683,,12833,
CG12869,SID104186000,,4484,,1687,
CR46300 (pseudo),SID104192259,,2188,,1447,
CG3982,SID104190186,,7944,,628,
CG5793,SID104195666,,21714,,5363,
sw (short wing),SID104200180,,5504,,1509,
CG30291,SID104183634,,11186,,6221,
Poc1 (Proteome of centrioles 1),SID104189505,,2728,,1445,
CG34324,SID104199294,,26780,,11899,
GCS2beta (Glucosidase 2 beta subunit),SID104182752,,3404,,390,
CG9356,SID104196268,,5671,,1736,
CG17646,SID104180299,,14992,,6313,
l(3)mbt (lethal (3) malignant brain tumor),SID104196775,,2918,3707,1221,1003
Pex16 (Peroxin 16),SID104191542,,4165,,1696,
Hrs (Hepatocyte growth factor regulated tyrosine kinase substrate),SID104180341,,17723,,5600,
LTV1 (LTV1 ribosome biogenesis factor),SID104185743,,10762,,3768,
CG3270,SID104184780,,10560,,3356,
Cdlc2 (Cytoplasmic dynein light chain 2),SID104180535,,14480,,4124,
CG8353,SID104182876,,2973,4970,1074,2736
CG44774,SID104198134,,17841,,7989,
CG6674,SID104190484,,4278,,1667,
AOX1 (Aldehyde oxidase 1),SID104195131,,6634,,2081,
Nup93-1 (Nucleoporin 93kD-1),SID104199136,,2472,6624,496,1537
CAH5 (Carbonic anhydrase 5),SID104195164,,6944,,3018,
CG14282,SID104194555,,16556,,3828,
spidey,SID104197724,,20224,,9536,
mRpL51 (mitochondrial ribosomal protein L51),SID104181992,,8544,,1456,
Dronc (Death regulator Nedd2-like caspase),SID104191023,,7683,,2027,
CG13871,SID104186222,,8105,,2656,
Alp6 (Alkaline phosphatase 6),SID104186502,,9145,,2928,
"Prosalpha4T2 (Proteasome alpha4 subunit, Testis-specific 2)",SID104184435,,2115,5745,616,2076
CG32599,SID104199225,,1952,10416,585,2009
